Reference: paper PMC12670160, “A drug-repurposing screen of FDA- and EMA-approved drugs identifies two NF-κB inhibitors active against eumycetoma” (Journal of Antimicrobial Chemotherapy, 2025)
Counter-ions that a name gives are not always drawn. Among all 5,300 compounds or so, about 130 (2.5%) showed an effect of 50% or more. The list shows a part of the results.

Test system: M. mycetomatis strain mm55
Conditions: primary screen, metabolic activity vs growth control; 96 h, 2 µM; inhibitor

Row | SMILES | % viability
1 | O=C(Nc1ncc(SCCN2CCCC2)s1)[C@]1(c2ccc(S(=O)(=O)C3CC3)cc2)C[C@H]1C1CCCCC1 [ONC0005072, ly2608204] | 79.77%
2 | O=C(O)CCCN1CCC(O[C@@H](c2ccc(Cl)cc2)c2ccccn2)CC1 [ONC0004530, bepotastine besilate] | 67.02%
3 | Clc1ccc(C23CNCC2C3)cc1Cl (centres unmarked) [ONC0001901, amitifadine] | 72.07%
4 | Cc1ccc(S(=O)(=O)OCC(=O)Nc2ccc(C(=O)O)c(O)c2)cc1 [ONC0000797, nsc 74859] | 82.71%
5 | CCC(=O)OCC(=O)[C@@]1(OC(=O)CC)[C@@H](C)C[C@H]2[C@@H]3CCC4=CC(=O)C=C[C@]4(C)[C@@]3(F)[C@@H](O)C[C@@]21C [ONC0002864, betamethasone 1721dipropionate] | 121.7%
6 | C/C(=N\c1ccccc1N)c1c(C)cc(=O)n(O)c1O [ONC0002644, sunb8155] | 62.2%
7 | COc1ccc(Br)cc1S(=O)(=O)NC(=O)/C=C/c1ccccc1Cc1ccc2ccccc2c1 [ONC0000823, l798106] | 88.75%
8 | CN(C(=O)CCCOc1ccc2[nH]c(=O)ccc2c1)C1CCCCC1 [ONC0001610, cilostamide] | 82.91%
9 | NNC(=O)c1ccncc1 [ONC0002883, pasiniazid] | 74.66%
10 | NC(C(=O)O)c1ccc(C(=O)O)c(C(=O)O)c1 (centres unmarked) [ONC0001672, 34dcpg] | 91.52%
11 | O=C(NCCO)c1cc(C(=O)NCCO)cc(C(=O)NCCO)c1 [ONC0000127, lm22a4] | 90.59%
12 | Nc1cc(C(F)(F)F)c(-c2nc(N3CCOCC3)nc(N3CCOCC3)n2)cn1 [ONC0001043, bimiralisib] | 79.27%
13 | O=C(c1ccc(OCCCc2cnc[nH]2)cc1)C1CC1 [ONC0005077, ciproxifan maleate] | 110.6%
14 | Nc1nonc1C(=NO)Nc1ccc(F)c(Cl)c1 [ONC0002386, ido5l] | 106.2%
15 | COc1cc2c(NC3CCN(CC4CCCCC4)CC3)nc(N3CCCN(C(C)C)CC3)nc2cc1OCCCN1CCCCC1 [ONC0000924, unc 0631] | 76.25%
16 | Cc1[nH]c(/C=C2\C(=O)Nc3cc(-c4ccccc4)ccc32)c(C)c1CCC(=O)O [ONC0001524, su16f] | 83.89%
17 | COc1ccc(-c2ccc3cc(C(=O)O)ccc3c2)cc1C12CC3CC(CC(C3)C1)C2 [ONC0000403, adapalene] | 53.89%
18 | CCCCCNCC(N)=O [ONC0003718, milacemide] | 96.85%
19 | CCN1CCCC1CNC(=O)c1cc(S(N)(=O)=O)ccc1OC (centres unmarked) [ONC0000700, sulpiride s] | 135.8%
20 | Cc1cccc(N(C)C(=S)Oc2ccc3ccccc3c2)c1 [ONC0000551, tolnaftate] | 107.4%

Grouped by structure: those above containing an aryl methoxy group (4)
Row | SMILES | % viability
7 | COc1ccc(Br)cc1S(=O)(=O)NC(=O)/C=C/c1ccccc1Cc1ccc2ccccc2c1 [ONC0000823, l798106] | 88.75%
15 | COc1cc2c(NC3CCN(CC4CCCCC4)CC3)nc(N3CCCN(C(C)C)CC3)nc2cc1OCCCN1CCCCC1 [ONC0000924, unc 0631] | 76.25%
17 | COc1ccc(-c2ccc3cc(C(=O)O)ccc3c2)cc1C12CC3CC(CC(C3)C1)C2 [ONC0000403, adapalene] | 53.89%
19 | CCN1CCCC1CNC(=O)c1cc(S(N)(=O)=O)ccc1OC (centres unmarked) [ONC0000700, sulpiride s] | 135.8%

Carrying on.

Row | SMILES | % viability
21 | N[C@@H](COP(=O)(O)O)C(=O)O [ONC0005313, dexfosfoserine hydrochloride] | 116.8%
22 | C=CCNC1=C2C[C@@H](C)C[C@H](OC)[C@H](O)[C@@H](C)/C=C(\C)[C@H](OC(N)=O)[C@@H](OC)/C=C\C=C(/C)C(=O)NC(=CC1=O)C2=O [ONC0004647, 17aag tanespimycin] | 80.32%
23 | COc1cc2c(cc1OC)CN(C(=O)[C@@H](NCc1ccncc1)C(C)(C)C)CC2 [ONC0002587, tcsox229] | 68.75%
24 | CN1CCN(c2ccc3nc(-c4c(N)c5c(F)cccc5[nH]c4=O)[nH]c3c2)CC1 [ONC0004693, dovitinib tki258 chir258] | 146%
25 | O=c1[nH]c(=O)n([C@H]2C[C@H](O)[C@@H](CO)O2)cc1I [ONC0005008, idoxuridin] | 89.88%
26 | Cc1cnc(C(=O)N[C@H]2CCCCC/C=C\[C@@H]3C[C@@]3(C(=O)NS(=O)(=O)C3CC3)NC(=O)[C@@H]3C[C@@H](Oc4nc5ccccc5c5ccccc45)CN3C2=O)cn1 [ONC0002058, paritaprevir] | 66.53%
27 | Nc1nccc2c1ncn2[C@@H]1C=C(CO)[C@@H](O)[C@H]1O [ONC0004546, 3deazaneplanocin a dznep hcl] | 65.5%
28 | CCCCCCCNS(=O)(=O)c1cccc2c(Cl)cccc12 [ONC0003431, sc10] | 68.77%
29 | CC1(N2CCC(n3c([C@@H]4CCCNC4)nc4ccccc43)CC2)CCCCCCC1 [ONC0001743, mcoppb] | 92.05%
30 | O=C(O)c1cccnc1 [ONC0000485, niacin] | 75.05%
31 | Cc1cc(C)nc(NS(=O)(=O)c2ccc(NC(=S)NC(=O)COc3ccc(Br)cc3Cl)cc2)n1 [ONC0001646, zcl278] | 86.79%
32 | Cn1cc(C2=C(c3cn(C4CCN(Cc5ccccn5)CC4)c4ccccc34)C(=O)NC2=O)c2ccccc21 [ONC0004929, enzastaurin ly317615] | 82.68%
33 | NC(=O)c1cc(N2CC2)c([N+](=O)[O-])cc1[N+](=O)[O-] [ONC0005396, tretazicar] | 94.69%
34 | CCOc1ccc(Cc2nccc3cc(OCC)c(OCC)cc23)cc1OCC [ONC0003191, ethaverine hydrochloride] | 135.5%
35 | O=C(Nc1cccnc1)N1CCC(Cc2cccc(Oc3ccc(C(F)(F)F)cn3)c2)CC1 [ONC0005062, pf3845] | 97.33%
36 | O=C(Nc1ccc([N+](=O)[O-])cc1Cl)c1cc(Cl)ccc1O [niclosamide] | 70.84%
37 | Cc1cccc(-c2nn3c(c2-c2ccnc4ccc(C(N)=O)cc24)CCC3)n1 [ONC0004982, galunisertib ly2157299] | 82.62%
38 | C#C[C@]1(O)CC[C@H]2[C@@H]3CCC4=Cc5oncc5C[C@]4(C)[C@H]3CC[C@@]21C [ONC0000341, danazol] | 67.08%
39 | O=C(c1cc(C2CC2)on1)N(C1CCCCC1)C1CCCCC1 [ONC0000255, cym5541] | 74.57%
40 | COc1ccc(-c2cc(=O)c3c(OC)c(OC)c(OC)c(OC)c3o2)cc1 [ONC0005052, tangeretin tangeritin] | 95.15%

Row | SMILES | % viability
41 | Cc1ccc(CNc2ncnc3ccc(-c4ccc(CO)o4)cc23)o1 [ONC0005070, ml167] | 85.12%
42 | Cc1[nH]c(/C=C2\C(=O)Nc3ccc(F)cc32)c(C)c1C(=O)NCCN1CCCC1 [ONC0002286, toceranib phosphate] | 63.73%
43 | Cc1nc(C)c(-c2ccc([C@H]3CC[C@H](CC(=O)O)CC3)cc2)nc1C(N)=O [ONC0000747, azd7687] | 72.19%
44 | N#Cc1ncccn1 [ONC0003700, 2cyanopyrimidine] | 105%
45 | CC12CC3CC(C)(C1)CC(N)(C3)C2 [ONC0000629, memantine hydrochloride] | 88.67%
46 | CN1CCCN=C1/C=C/c1cccs1 [ONC0001175, pyrantel pamoate] | 133.2%
47 | N#Cc1c(Oc2ccc(F)c(NC(=O)Cc3cccc(C(F)(F)F)c3)c2)ccc2nc(NC(=O)C3CC3)sc12 [ONC0004387, tak632] | 113%
48 | NS(=O)(=O)NCc1csc2ccccc12 [ONC0002615, jnj26990990] | 78.72%
49 | Cc1cc(OCc2nc(-c3ccccc3Cl)cs2)ccc1OCC(=O)O [ONC0004227, gpr120 modulator 1] | 84.58%
50 | CCCCC(CC)COc1ccc(-c2nc(-c3ccc(OC)cc3)nc(-c3ccc(OCC(CC)CCCC)cc3O)n2)c(O)c1 (centres unmarked) [ONC0002354, bemotrizinol] | 72.24%
51 | COc1ccc(-c2cc(=O)c3c(OC)c(OC)c(OC)c(OC)c3o2)cc1OC [ONC0004945, nobiletin hexamethoxyflavone] | 107.8%
52 | CCOC(=O)N1c2ccc(C(F)(F)F)cc2[C@@H](N(Cc2cc(C(F)(F)F)cc(C(F)(F)F)c2)C(=O)OC)C[C@H]1CC [ONC0004341, torcetrapib cp529414] | 107.6%
53 | Cc1c(N)cccc1Cn1ccc(OCCc2cccs2)cc1=O [ONC0000431, 13amino2methylbenzyl42thiophen2ylethoxy2pyridone] | 70.22%
54 | Nc1ccn([C@H]2CO[C@@H](CO)S2)c(=O)n1 [ONC0002008, apricitabine] | 97.22%
55 | NC(=O)C(c1ccccc1)(c1ccc(F)cc1)c1ccc(F)cc1 [ONC0001807, senicapoc] | 117.3%
56 | Cc1ccc(C(=O)Nc2cccc(C(F)(F)F)c2)cc1Nc1nc(-c2cccnc2)nc2c1cnn2C [ONC0004595, nvpbhg712] | 81.25%
57 | Cc1ncc(C)n2nc([C@@H]3C[C@H]3c3nc4c5cccnc5ccn4c3C)nc12 [ONC0002274, pde10in1] | 134%
58 | C=CCN1CC[C@]23c4c5ccc(O)c4O[C@H]2C(=O)CC[C@@]3(O)[C@H]1C5 [ONC0000381, naloxone hydrochloride] | 70.45%
59 | O=c1cc[nH]c(=O)[nH]1 [ONC0004138, uracil] | 94.37%
